These are yes or no findings as the source states them, for the method shown. Binding calls can cover weak binding; strength is not graded here. For some assays here: Binding seen in cells or lysates may run through a third protein. For some assays here: Tags and fused reporters may be left off the sequences shown.
How the values were obtained:
[1] = target: T1, HopF2Pto, yeast two-hybrid bait (QIS-seq) (Pseudomonas syringae pv. tomato DC3000) (UniProt Q88A90); test: two-hybrid; yeast 2-hybrid screening coupled with next-generation sequencing (QIS-seq), HopF2Pto as the screened protein
T1 sequence: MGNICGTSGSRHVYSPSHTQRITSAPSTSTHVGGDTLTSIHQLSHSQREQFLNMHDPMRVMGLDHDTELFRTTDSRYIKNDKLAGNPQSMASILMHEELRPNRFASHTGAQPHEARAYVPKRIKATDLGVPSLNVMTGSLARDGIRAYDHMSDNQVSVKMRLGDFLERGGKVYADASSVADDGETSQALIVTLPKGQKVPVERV

Chains of the proteins cited; added tags and fusions are not shown. Lines headed by an entry give the natural chain unless they say otherwise; changes in a name come on top.
UniProt Q9M8T0: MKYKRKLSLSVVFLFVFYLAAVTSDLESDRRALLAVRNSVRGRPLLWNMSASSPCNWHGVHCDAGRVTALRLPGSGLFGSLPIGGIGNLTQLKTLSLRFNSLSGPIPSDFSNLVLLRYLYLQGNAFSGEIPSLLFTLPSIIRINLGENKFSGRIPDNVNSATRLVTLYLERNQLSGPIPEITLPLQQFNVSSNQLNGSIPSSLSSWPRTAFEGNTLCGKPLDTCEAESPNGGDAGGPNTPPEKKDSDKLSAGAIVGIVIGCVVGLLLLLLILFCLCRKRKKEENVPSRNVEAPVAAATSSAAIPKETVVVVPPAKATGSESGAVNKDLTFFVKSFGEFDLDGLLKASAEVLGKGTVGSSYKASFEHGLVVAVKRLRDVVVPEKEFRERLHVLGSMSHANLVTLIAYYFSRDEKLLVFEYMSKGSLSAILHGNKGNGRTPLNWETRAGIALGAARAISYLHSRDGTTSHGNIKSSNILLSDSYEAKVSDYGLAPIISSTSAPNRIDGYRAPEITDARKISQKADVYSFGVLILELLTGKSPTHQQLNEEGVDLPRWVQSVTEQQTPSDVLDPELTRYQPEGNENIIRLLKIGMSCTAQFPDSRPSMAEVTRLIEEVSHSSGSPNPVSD

[2] = target: T2, HopF2Pto-HA (Pseudomonas syringae pv. tomato DC3000) (UniProt Q88A90); test: co-IP
T2 sequence: T1 sequence

Row | Substance | binding [1] | binding [2]
1 | QSK1, yeast two-hybrid prey (QIS-seq) (from UniProt Q9M8T0) | binds | 
2 | QIAN SHOU KINASE 1 (QSK1), endogenous (from UniProt Q9M8T0) |  | binds

From publication PMC11641854
